The values that follow are results of earlier work, collected in patent US11197933B2, “Polysubunit opioid prodrugs resistant to overdose and abuse” (Elysium Therapeutics, Inc., priority 2017, dated 2021).

Structures are written as SMILES. Structures can show the parent of a compound that is named as a salt.

The conditions of the data set: cited from earlier work.

On to `O=C1CC[C@@]2(O)[C@H]3Cc4ccc(O)c5c4[C@@]2(CCN3CC2CC2)[C@H]1O5` [hydrochloride salt of naltrexone, naltrexone], for which the Solubility in water entry was “about 100 mg/mL”.
